# Measurements taken from the supplement of paper PMC12819154, “High-throughput peptide-centric local stability assay extends protein–ligand identification to membrane proteins, tissues and bacteria” (Nature Structural & Molecular Biology, 2025).
# Chains of the proteins cited; added tags and fusions are not shown. Lines headed by an entry give the natural chain unless they say otherwise; changes in a name come on top.
# UniProt O08759: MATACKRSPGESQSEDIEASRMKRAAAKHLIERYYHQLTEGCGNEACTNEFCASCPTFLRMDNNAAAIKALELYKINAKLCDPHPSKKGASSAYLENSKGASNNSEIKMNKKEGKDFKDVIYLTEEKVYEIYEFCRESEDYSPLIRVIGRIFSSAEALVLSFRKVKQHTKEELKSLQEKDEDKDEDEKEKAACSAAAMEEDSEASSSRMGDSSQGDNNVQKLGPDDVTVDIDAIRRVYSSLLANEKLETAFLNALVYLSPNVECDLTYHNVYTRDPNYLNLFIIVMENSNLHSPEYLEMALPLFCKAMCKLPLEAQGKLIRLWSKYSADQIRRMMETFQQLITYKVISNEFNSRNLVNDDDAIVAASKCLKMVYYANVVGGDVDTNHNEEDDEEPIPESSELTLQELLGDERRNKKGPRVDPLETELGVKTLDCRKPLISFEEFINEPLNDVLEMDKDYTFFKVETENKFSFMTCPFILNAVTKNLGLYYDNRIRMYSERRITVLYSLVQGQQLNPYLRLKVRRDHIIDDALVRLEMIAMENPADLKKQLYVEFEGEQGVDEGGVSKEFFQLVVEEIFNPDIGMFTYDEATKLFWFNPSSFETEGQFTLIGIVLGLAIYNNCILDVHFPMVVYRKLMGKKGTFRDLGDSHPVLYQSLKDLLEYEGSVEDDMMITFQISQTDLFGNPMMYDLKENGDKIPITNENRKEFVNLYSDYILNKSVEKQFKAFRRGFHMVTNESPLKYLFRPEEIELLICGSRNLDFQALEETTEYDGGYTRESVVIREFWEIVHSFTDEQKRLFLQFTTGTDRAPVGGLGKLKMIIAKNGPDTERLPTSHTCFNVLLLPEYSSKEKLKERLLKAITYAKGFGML
# UniProt B2RX12: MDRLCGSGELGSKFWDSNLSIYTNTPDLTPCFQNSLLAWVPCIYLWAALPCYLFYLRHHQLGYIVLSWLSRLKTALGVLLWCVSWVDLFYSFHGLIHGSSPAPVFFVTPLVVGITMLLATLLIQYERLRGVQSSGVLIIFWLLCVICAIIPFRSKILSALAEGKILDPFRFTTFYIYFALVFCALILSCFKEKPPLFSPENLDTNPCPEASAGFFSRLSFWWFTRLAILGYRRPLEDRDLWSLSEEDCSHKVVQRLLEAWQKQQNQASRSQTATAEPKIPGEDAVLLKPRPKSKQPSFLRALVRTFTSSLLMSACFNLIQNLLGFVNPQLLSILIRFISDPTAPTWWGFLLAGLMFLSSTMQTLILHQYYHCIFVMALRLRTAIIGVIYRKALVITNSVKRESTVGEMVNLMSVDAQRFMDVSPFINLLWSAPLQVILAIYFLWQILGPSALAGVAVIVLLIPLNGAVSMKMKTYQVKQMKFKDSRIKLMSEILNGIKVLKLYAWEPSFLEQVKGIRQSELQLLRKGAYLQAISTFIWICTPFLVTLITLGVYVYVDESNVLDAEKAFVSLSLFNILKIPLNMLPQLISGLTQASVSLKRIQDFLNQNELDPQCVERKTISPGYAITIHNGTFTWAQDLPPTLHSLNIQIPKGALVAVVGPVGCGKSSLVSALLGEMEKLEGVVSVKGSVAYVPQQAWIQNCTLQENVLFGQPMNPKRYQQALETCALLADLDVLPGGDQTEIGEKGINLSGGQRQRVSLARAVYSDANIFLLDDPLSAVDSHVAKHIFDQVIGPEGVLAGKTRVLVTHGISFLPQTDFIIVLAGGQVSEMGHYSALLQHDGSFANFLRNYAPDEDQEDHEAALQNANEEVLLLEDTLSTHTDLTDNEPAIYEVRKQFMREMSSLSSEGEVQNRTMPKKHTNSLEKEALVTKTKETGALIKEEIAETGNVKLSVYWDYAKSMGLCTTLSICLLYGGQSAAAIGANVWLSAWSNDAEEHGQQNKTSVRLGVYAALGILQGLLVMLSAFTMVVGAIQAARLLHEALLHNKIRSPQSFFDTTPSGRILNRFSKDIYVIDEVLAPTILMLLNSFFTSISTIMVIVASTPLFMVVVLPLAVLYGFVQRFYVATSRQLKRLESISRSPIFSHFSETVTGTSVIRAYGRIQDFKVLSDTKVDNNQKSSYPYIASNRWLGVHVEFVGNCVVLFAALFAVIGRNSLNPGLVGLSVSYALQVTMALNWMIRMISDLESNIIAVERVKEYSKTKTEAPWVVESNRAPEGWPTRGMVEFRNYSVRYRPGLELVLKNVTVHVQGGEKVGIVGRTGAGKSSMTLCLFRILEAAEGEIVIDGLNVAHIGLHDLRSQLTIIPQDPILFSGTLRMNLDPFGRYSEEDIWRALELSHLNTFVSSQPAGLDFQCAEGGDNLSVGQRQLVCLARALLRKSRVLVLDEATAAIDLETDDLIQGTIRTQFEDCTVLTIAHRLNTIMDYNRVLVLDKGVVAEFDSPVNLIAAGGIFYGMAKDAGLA
# UniProt O08736: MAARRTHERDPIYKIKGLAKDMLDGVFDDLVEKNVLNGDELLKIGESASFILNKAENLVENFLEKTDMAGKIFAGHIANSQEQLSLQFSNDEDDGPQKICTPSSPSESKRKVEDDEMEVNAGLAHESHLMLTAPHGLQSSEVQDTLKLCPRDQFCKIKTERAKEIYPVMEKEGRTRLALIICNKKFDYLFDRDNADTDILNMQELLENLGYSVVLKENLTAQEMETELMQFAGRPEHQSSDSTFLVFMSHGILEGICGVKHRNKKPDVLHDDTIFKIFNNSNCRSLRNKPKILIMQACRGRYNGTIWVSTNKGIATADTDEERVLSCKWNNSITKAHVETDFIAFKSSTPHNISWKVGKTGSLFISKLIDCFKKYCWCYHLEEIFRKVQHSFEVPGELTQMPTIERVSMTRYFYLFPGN
# UniProt E9Q912: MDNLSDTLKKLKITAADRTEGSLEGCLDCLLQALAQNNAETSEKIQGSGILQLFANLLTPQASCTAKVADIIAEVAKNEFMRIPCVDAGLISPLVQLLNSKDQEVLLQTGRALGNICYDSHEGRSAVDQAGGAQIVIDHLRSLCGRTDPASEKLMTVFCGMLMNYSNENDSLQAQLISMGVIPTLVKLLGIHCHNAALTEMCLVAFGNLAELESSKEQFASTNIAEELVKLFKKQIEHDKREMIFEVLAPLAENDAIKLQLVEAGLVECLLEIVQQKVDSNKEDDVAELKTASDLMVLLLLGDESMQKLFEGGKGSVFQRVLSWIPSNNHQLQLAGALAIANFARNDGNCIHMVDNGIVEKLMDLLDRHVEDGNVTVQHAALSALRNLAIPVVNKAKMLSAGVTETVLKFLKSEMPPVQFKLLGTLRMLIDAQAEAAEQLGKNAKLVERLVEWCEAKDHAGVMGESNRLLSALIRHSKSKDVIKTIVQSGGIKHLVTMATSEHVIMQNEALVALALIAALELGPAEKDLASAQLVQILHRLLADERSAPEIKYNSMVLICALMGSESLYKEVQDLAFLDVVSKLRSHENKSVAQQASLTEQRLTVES
# UniProt O08997: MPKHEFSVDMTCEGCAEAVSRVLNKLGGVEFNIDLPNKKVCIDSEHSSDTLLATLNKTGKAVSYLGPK
# UniProt G3X982: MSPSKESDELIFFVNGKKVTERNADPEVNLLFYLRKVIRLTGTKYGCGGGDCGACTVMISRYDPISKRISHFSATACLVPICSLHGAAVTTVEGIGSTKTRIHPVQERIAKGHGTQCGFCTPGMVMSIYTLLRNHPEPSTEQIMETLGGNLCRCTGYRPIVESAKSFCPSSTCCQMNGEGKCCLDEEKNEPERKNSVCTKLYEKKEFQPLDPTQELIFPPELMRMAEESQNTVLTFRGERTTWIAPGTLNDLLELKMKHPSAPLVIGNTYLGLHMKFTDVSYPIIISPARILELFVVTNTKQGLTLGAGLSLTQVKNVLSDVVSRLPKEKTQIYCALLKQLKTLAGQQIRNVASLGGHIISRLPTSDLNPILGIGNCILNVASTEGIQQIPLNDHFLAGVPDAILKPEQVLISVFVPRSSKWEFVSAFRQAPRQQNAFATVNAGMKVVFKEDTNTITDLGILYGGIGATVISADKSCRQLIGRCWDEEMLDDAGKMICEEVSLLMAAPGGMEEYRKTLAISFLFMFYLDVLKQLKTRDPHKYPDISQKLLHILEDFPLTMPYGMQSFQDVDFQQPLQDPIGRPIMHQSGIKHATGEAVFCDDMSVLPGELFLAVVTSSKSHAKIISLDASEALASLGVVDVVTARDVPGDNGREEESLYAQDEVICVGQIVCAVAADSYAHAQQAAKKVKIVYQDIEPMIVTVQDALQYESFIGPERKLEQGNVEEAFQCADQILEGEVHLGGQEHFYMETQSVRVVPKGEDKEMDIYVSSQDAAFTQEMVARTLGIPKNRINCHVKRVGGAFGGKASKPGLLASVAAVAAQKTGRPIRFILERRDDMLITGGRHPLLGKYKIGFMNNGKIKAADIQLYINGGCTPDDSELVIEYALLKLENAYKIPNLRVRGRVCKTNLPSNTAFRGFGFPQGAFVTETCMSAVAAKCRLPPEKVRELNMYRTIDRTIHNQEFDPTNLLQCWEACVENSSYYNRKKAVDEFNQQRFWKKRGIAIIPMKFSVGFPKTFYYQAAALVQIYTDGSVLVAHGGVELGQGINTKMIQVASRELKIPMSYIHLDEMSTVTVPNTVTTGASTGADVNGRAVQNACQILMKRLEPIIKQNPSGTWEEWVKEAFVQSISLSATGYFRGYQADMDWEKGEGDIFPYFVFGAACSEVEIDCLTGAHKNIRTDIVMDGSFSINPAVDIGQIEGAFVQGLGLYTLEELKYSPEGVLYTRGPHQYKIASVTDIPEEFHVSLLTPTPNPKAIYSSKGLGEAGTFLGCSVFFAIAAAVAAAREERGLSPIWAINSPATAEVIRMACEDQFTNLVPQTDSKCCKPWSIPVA
# UniProt O35143: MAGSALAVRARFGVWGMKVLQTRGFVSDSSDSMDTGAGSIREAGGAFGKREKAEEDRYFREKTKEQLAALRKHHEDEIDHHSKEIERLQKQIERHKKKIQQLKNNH
# UniProt F8VPZ9: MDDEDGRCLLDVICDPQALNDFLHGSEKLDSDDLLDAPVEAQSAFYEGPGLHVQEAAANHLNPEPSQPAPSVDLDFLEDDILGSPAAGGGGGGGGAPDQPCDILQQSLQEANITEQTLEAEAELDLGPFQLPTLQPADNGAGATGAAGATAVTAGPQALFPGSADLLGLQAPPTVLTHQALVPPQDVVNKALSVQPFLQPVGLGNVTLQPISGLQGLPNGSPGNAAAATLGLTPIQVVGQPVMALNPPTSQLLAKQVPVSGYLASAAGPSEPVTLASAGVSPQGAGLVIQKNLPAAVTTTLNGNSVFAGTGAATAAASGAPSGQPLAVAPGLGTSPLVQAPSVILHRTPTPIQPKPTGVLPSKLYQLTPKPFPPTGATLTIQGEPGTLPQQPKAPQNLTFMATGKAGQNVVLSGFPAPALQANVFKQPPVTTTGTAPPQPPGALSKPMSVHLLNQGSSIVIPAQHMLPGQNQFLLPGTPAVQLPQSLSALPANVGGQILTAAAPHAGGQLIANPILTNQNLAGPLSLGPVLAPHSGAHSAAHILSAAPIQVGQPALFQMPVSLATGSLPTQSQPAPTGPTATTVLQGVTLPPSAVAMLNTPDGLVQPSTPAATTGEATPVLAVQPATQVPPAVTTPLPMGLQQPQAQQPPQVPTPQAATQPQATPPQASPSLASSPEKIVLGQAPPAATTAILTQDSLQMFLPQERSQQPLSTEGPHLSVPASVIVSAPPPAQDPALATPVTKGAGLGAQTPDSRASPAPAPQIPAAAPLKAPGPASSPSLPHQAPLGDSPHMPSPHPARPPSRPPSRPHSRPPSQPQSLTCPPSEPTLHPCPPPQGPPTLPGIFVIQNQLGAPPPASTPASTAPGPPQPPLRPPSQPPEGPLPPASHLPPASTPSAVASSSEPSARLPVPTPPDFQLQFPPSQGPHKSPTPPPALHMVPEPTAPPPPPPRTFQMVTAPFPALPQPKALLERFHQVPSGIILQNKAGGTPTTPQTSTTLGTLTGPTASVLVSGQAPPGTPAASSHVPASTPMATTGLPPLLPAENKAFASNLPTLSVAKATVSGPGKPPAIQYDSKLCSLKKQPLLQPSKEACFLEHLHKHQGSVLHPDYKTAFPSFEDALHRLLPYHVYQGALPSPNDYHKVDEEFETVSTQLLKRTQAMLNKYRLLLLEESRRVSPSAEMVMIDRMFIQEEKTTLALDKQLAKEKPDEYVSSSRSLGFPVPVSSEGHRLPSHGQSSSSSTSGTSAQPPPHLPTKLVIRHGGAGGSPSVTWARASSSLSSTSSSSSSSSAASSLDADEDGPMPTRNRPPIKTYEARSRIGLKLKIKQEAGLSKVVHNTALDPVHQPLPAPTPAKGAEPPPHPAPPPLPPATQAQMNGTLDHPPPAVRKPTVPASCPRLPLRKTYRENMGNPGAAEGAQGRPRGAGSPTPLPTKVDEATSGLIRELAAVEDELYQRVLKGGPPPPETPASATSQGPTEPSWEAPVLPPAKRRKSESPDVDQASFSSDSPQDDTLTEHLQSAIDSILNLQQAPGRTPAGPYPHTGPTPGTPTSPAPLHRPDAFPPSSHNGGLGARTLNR
# This is one part of the list. Small differences around the control level are noise.
# Compound: CN[C@@H]1C[C@H]2O[C@@](C)([C@@H]1OC)n1c3ccccc3c3c4c(c5c6ccccc6n2c5c31)C(=O)NC4 [staurosporine]
# Assay: log2 fold change of tryptic peptide abundance, ligand vs vehicle (limited proteolysis) (log2 ratio); higher = more trypsin-susceptible (destabilized)
# Details: ligand concentration: 20 uM; sample: mouse liver crude lysate; replicate design: treated separately
row,Target,log2 fold change
1,"UniProt O08749 (peptide sequence: ALTGGIAHLFK, peptide start residue: 133)",0.249
2,"UniProt O08759 (peptide sequence: GFHMVTNESPLK, peptide start residue: 731)",0.345
3,"UniProt O35245 (peptide sequence: HLPLEGQPPR, peptide start residue: 175)",0.375
4,"UniProt G3UZ78 (peptide sequence: DTERADEIR, peptide start residue: 1380)",0.0891
5,"UniProt O35242 (peptide sequence: EHNIVAPYKIER, peptide start residue: 117)",-0.3
6,"UniProt D2EAC2 (peptide sequence: LGTDSFTSIK, peptide start residue: 827)",0.398
7,"UniProt E9Q3M5 (peptide sequence: WIKFEEK, peptide start residue: 131)",-0.0424
8,"UniProt G3X9Z4 (peptide sequence: IDGPPTPGSLR, peptide start residue: 780)",0.155
9,"UniProt D3YZP9 (peptide sequence: MDKLEAEKR, peptide start residue: 214)",-0.336
10,"UniProt O08983 (peptide sequence: SQPFVADLR, peptide start residue: 425)",-0.0407
11,"UniProt F8VPZ3 (peptide sequence: MLHVVDGKVPDTLR, peptide start residue: 119)",-0.514
12,"UniProt O35185 (peptide sequence: LTTLGHLEK, peptide start residue: 85)",0.482
13,"UniProt B2RX12 (peptide sequence: GINLSGGQR, peptide start residue: 806)",-0.29
14,"UniProt O08736 (peptide sequence: AHVETDFIAFKSSTPHNISWK, peptide start residue: 336)",0.382
15,"UniProt G3X9X1 (peptide sequence: SVVVQGLYK, peptide start residue: 243)",-0.158
16,"UniProt E9QMW4 (peptide sequence: KGPSSAIKK, peptide start residue: 570)",-0.0365
17,"UniProt O08601 (peptide sequence: MLSASGDPVSVVK, peptide start residue: 716)",-0.235
18,"UniProt E9Q912 (peptide sequence: SVAQQASLTEQR, peptide start residue: 591)",0.178

# 2 records drawn at random from the list so far:
row,Target,log2 fold change
17,"UniProt O08601 (peptide sequence: MLSASGDPVSVVK, peptide start residue: 716)",-0.235
15,"UniProt G3X9X1 (peptide sequence: SVVVQGLYK, peptide start residue: 243)",-0.158

# The results go on.

row,Target,log2 fold change
1,"UniProt O35350 (peptide sequence: TNGFSLESCR, peptide start residue: 581)",0.106
2,"UniProt G5E8V9 (peptide sequence: QLGDAFADLSLK, peptide start residue: 195)",-0.207
3,"UniProt O08734 (peptide sequence: QLALIGDDINRR, peptide start residue: 75)",0.0706
4,"UniProt O09044 (peptide sequence: AHQVTDESLESTRR, peptide start residue: 13)",-0.0584
5,"UniProt O35250 (peptide sequence: WLVEYGR, peptide start residue: 205)",-0.116
6,"UniProt E9Q4F7 (peptide sequence: SFTYEYEDSKQK, peptide start residue: 660)",0.499
7,"UniProt O08997 (peptide sequence: VCIDSEHSSDTLLATLNKTGK, peptide start residue: 40)",0.0924
8,"UniProt O35280 (peptide sequence: ILVETPSAR, peptide start residue: 245)",-0.0131
9,"UniProt G3X982 (peptide sequence: CCLDEEKNEPER, peptide start residue: 182)",0.188
10,"UniProt O08529 (peptide sequence: KALEEAGFKLPCQLHQVIVAR, peptide start residue: 629)",-0.716
11,"UniProt O08795 (peptide sequence: HGGSPTSLGTWGSWAGPDHDKFSAMK, peptide start residue: 432)",-0.601
12,"UniProt G5E870 (peptide sequence: GLWHPYNR, peptide start residue: 776)",0.389
13,"UniProt O35143 (peptide sequence: TKEQLAALR, peptide start residue: 63)",0.0725
14,"UniProt O08580 (peptide sequence: CLPGHKEEEDGEGAGSGEQGSGK, peptide start residue: 46)",0.638
15,"UniProt E9Q784 (peptide sequence: ASLLSDLGPCCK, peptide start residue: 1643)",0.243
16,"UniProt O35450 (peptide sequence: KVLAVDPK, peptide start residue: 309)",-0.105
17,"UniProt F8VPZ9 (peptide sequence: ENMGNPGAAEGAQGRPR, peptide start residue: 1407)",0.476
18,"UniProt K7N6K2 (peptide sequence: IQTGFNQLR, peptide start residue: 182)",-0.233
